{"source": "PubChem BioAssay AID686938 – Drosophila RNAi Screening Center – 2013", "purpose": "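Knock-downs reducing store-operated calcium influx in Drosophila cells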 (primary screen)", "system": "Drosophila S2R+ cells", "reagents": "long dsRNA against Drosophila genes, about 0.25 µg dsRNA per well, roughly 10,000 cells", "duration": "5 days of knock-down before the calcium assay", "treatment": "thapsigargin (SERCA pump blocker) to empty calcium stores; entry signal taken 4 min after adding it", "detection": "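Per-well fluo-4 fluorescence in two replicates, unnormalised, measured in resting cells and 4 min after store depletion by the SERCA blocker thapsigargin; ratio of the two present in few wells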", "direction": "calcium entry signal: higher = stronger calcium signal after store depletion; resting calcium signal: higher = higher resting calcium signal", "call rule": "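Called when the plate z-score of the entry-to-rest ratio, mean of duplicates, falls below −3; wells with low overall dye signal (Fmax z below −2) or more than five off-targets excluded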", "calls": "active = strongly reduced calcium entry; inactive = no strong reduction", "note": "The deposit covers about 23,000 reagents; below is an unselected part of those that have a named target and a result. In the full data, 75 (0.33%) were called active. 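Raw plate signals without normalisation; calls rest on plate z-scores that were not deposited; ratio present for only 364 wells.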 The numbers tell different reagents against one gene apart. Names joined by + are all predicted targets of the reagent. The record does not give: the dose of the treatment."}
{"gene knocked down": "Or92a", "reagent": 1, "calcium entry signal, replicate 1 (fluorescence units)": 3.50e7, "calcium entry signal, replicate 2 (fluorescence units)": 4.11e7, "resting calcium signal, replicate 1 (fluorescence units)": 4.83e7, "resting calcium signal, replicate 2 (fluorescence units)": 1.80e7, "activity call": "inactive"}
{"gene knocked down": "MESR3", "reagent": 1, "calcium entry signal, replicate 1 (fluorescence units)": 2.92e7, "calcium entry signal, replicate 2 (fluorescence units)": 4.89e7, "resting calcium signal, replicate 1 (fluorescence units)": 1.52e7, "resting calcium signal, replicate 2 (fluorescence units)": 2.01e7, "activity call": "inactive"}
{"gene knocked down": "CG31816", "reagent": 1, "calcium entry signal, replicate 1 (fluorescence units)": 2.34e7, "calcium entry signal, replicate 2 (fluorescence units)": 3.33e7, "resting calcium signal, replicate 1 (fluorescence units)": 1.26e7, "resting calcium signal, replicate 2 (fluorescence units)": 1.45e7, "activity call": "inactive"}
{"gene knocked down": "Vps24", "reagent": 1, "calcium entry signal, replicate 1 (fluorescence units)": 3.25e7, "calcium entry signal, replicate 2 (fluorescence units)": 8.83e7, "resting calcium signal, replicate 1 (fluorescence units)": 1.50e7, "resting calcium signal, replicate 2 (fluorescence units)": 2.92e7, "activity call": "inactive"}
{"gene knocked down": "Ppm1", "reagent": 1, "calcium entry signal, replicate 1 (fluorescence units)": 3.95e7, "calcium entry signal, replicate 2 (fluorescence units)": 4.49e7, "resting calcium signal, replicate 1 (fluorescence units)": 2.01e7, "resting calcium signal, replicate 2 (fluorescence units)": 1.92e7, "activity call": "inactive"}
{"gene knocked down": "PK1-R", "reagent": 1, "calcium entry signal, replicate 1 (fluorescence units)": 3.38e7, "calcium entry signal, replicate 2 (fluorescence units)": 4.84e7, "resting calcium signal, replicate 1 (fluorescence units)": 1.65e7, "resting calcium signal, replicate 2 (fluorescence units)": 6.53e7, "activity call": "inactive"}
{"gene knocked down": "Blm", "reagent": 1, "calcium entry signal, replicate 1 (fluorescence units)": 3.34e7, "calcium entry signal, replicate 2 (fluorescence units)": 3.94e7, "resting calcium signal, replicate 1 (fluorescence units)": 1.34e7, "resting calcium signal, replicate 2 (fluorescence units)": 1.79e7, "activity call": "inactive"}
{"gene knocked down": "CG8668", "reagent": 1, "calcium entry signal, replicate 1 (fluorescence units)": 4.51e7, "resting calcium signal, replicate 1 (fluorescence units)": 2.21e7, "activity call": "inactive"}
{"gene knocked down": "CG13074", "reagent": 1, "calcium entry signal, replicate 1 (fluorescence units)": 3.83e7, "calcium entry signal, replicate 2 (fluorescence units)": 5.61e7, "resting calcium signal, replicate 1 (fluorescence units)": 1.95e7, "resting calcium signal, replicate 2 (fluorescence units)": 2.35e7, "activity call": "inactive"}
{"gene knocked down": "Mpcp1", "reagent": 1, "calcium entry signal, replicate 1 (fluorescence units)": 5.43e7, "calcium entry signal, replicate 2 (fluorescence units)": 4.99e7, "resting calcium signal, replicate 1 (fluorescence units)": 2.16e7, "resting calcium signal, replicate 2 (fluorescence units)": 2.38e7, "activity call": "inactive"}
{"gene knocked down": "CG14297", "reagent": 1, "calcium entry signal, replicate 1 (fluorescence units)": 1.79e7, "calcium entry signal, replicate 2 (fluorescence units)": 1.98e7, "resting calcium signal, replicate 1 (fluorescence units)": 1.12e7, "resting calcium signal, replicate 2 (fluorescence units)": 3.35e7, "activity call": "inactive"}
{"gene knocked down": "pix", "reagent": 1, "calcium entry signal, replicate 1 (fluorescence units)": 1.30e7, "calcium entry signal, replicate 2 (fluorescence units)": 1.71e7, "resting calcium signal, replicate 1 (fluorescence units)": 8.90e6, "resting calcium signal, replicate 2 (fluorescence units)": 1.18e7, "activity call": "inactive"}
{"gene knocked down": "Xxylt", "reagent": 1, "calcium entry signal, replicate 1 (fluorescence units)": 4.21e7, "resting calcium signal, replicate 1 (fluorescence units)": 2.13e7, "activity call": "inactive"}
{"gene knocked down": "Prosbeta2R2", "reagent": 1, "calcium entry signal, replicate 1 (fluorescence units)": 4.28e7, "calcium entry signal, replicate 2 (fluorescence units)": 2.85e7, "resting calcium signal, replicate 1 (fluorescence units)": 2.00e7, "resting calcium signal, replicate 2 (fluorescence units)": 1.27e7, "activity call": "inactive"}
{"gene knocked down": "ord", "reagent": 1, "calcium entry signal, replicate 1 (fluorescence units)": 1.97e7, "calcium entry signal, replicate 2 (fluorescence units)": 2.21e7, "resting calcium signal, replicate 1 (fluorescence units)": 1.11e7, "resting calcium signal, replicate 2 (fluorescence units)": 1.14e7, "activity call": "inactive"}
{"gene knocked down": "ATPsynD", "reagent": 1, "calcium entry signal, replicate 1 (fluorescence units)": 2.77e7, "calcium entry signal, replicate 2 (fluorescence units)": 3.58e7, "resting calcium signal, replicate 1 (fluorescence units)": 4.69e7, "resting calcium signal, replicate 2 (fluorescence units)": 1.74e7, "activity call": "inactive"}
{"gene knocked down": "Gss1 + Gss2", "reagent": 1, "calcium entry signal, replicate 1 (fluorescence units)": 2.83e7, "calcium entry signal, replicate 2 (fluorescence units)": 3.31e7, "resting calcium signal, replicate 1 (fluorescence units)": 1.52e7, "resting calcium signal, replicate 2 (fluorescence units)": 1.51e7, "activity call": "inactive"}
{"gene knocked down": "Gss1 + Gss2", "reagent": 2, "calcium entry signal, replicate 1 (fluorescence units)": 3.40e7, "calcium entry signal, replicate 2 (fluorescence units)": 3.66e7, "resting calcium signal, replicate 1 (fluorescence units)": 1.99e7, "resting calcium signal, replicate 2 (fluorescence units)": 1.73e7, "activity call": "inactive"}
{"gene knocked down": "CG13196", "reagent": 1, "calcium entry signal, replicate 1 (fluorescence units)": 3.16e7, "calcium entry signal, replicate 2 (fluorescence units)": 3.70e7, "resting calcium signal, replicate 1 (fluorescence units)": 1.65e7, "resting calcium signal, replicate 2 (fluorescence units)": 1.82e7, "activity call": "inactive"}
{"gene knocked down": "Nup62", "reagent": 1, "calcium entry signal, replicate 1 (fluorescence units)": 3.03e7, "calcium entry signal, replicate 2 (fluorescence units)": 2.95e7, "resting calcium signal, replicate 1 (fluorescence units)": 1.57e7, "resting calcium signal, replicate 2 (fluorescence units)": 1.70e7, "activity call": "inactive"}
{"gene knocked down": "lncRNA:CR32730", "reagent": 1, "calcium entry signal, replicate 1 (fluorescence units)": 4.23e7, "calcium entry signal, replicate 2 (fluorescence units)": 3.30e7, "resting calcium signal, replicate 1 (fluorescence units)": 2.09e7, "resting calcium signal, replicate 2 (fluorescence units)": 1.26e7, "activity call": "inactive"}
{"gene knocked down": "lncRNA:Hsromega", "reagent": 1, "calcium entry signal, replicate 1 (fluorescence units)": 5.13e7, "calcium entry signal, replicate 2 (fluorescence units)": 3.37e7, "resting calcium signal, replicate 1 (fluorescence units)": 2.32e7, "resting calcium signal, replicate 2 (fluorescence units)": 1.50e7, "activity call": "inactive"}
{"gene knocked down": "gcl", "reagent": 1, "calcium entry signal, replicate 1 (fluorescence units)": 4.41e7, "calcium entry signal, replicate 2 (fluorescence units)": 3.52e7, "resting calcium signal, replicate 1 (fluorescence units)": 1.81e7, "resting calcium signal, replicate 2 (fluorescence units)": 1.63e7, "activity call": "inactive"}
{"gene knocked down": "AIF", "reagent": 1, "calcium entry signal, replicate 1 (fluorescence units)": 3.79e7, "resting calcium signal, replicate 1 (fluorescence units)": 1.75e7, "activity call": "inactive"}
{"gene knocked down": "CG7201", "reagent": 1, "calcium entry signal, replicate 1 (fluorescence units)": 2.23e7, "calcium entry signal, replicate 2 (fluorescence units)": 3.47e7, "resting calcium signal, replicate 1 (fluorescence units)": 1.17e7, "resting calcium signal, replicate 2 (fluorescence units)": 1.61e7, "activity call": "inactive"}
{"gene knocked down": "Coq5", "reagent": 1, "calcium entry signal, replicate 1 (fluorescence units)": 4.07e7, "calcium entry signal, replicate 2 (fluorescence units)": 4.05e7, "resting calcium signal, replicate 1 (fluorescence units)": 2.03e7, "resting calcium signal, replicate 2 (fluorescence units)": 1.97e7, "activity call": "inactive"}
{"gene knocked down": "Coq5", "reagent": 2, "calcium entry signal, replicate 1 (fluorescence units)": 4.01e7, "calcium entry signal, replicate 2 (fluorescence units)": 4.26e7, "resting calcium signal, replicate 1 (fluorescence units)": 1.83e7, "resting calcium signal, replicate 2 (fluorescence units)": 1.84e7, "activity call": "inactive"}

3 entries from above, sorted by “resting calcium signal, replicate 1 (fluorescence units)”, low to high:
{"gene knocked down": "CG13074", "reagent": 1, "calcium entry signal, replicate 1 (fluorescence units)": 3.83e7, "calcium entry signal, replicate 2 (fluorescence units)": 5.61e7, "resting calcium signal, replicate 1 (fluorescence units)": 1.95e7, "resting calcium signal, replicate 2 (fluorescence units)": 2.35e7, "activity call": "inactive"}
{"gene knocked down": "Mpcp1", "reagent": 1, "calcium entry signal, replicate 1 (fluorescence units)": 5.43e7, "calcium entry signal, replicate 2 (fluorescence units)": 4.99e7, "resting calcium signal, replicate 1 (fluorescence units)": 2.16e7, "resting calcium signal, replicate 2 (fluorescence units)": 2.38e7, "activity call": "inactive"}
{"gene knocked down": "CG8668", "reagent": 1, "calcium entry signal, replicate 1 (fluorescence units)": 4.51e7, "resting calcium signal, replicate 1 (fluorescence units)": 2.21e7, "activity call": "inactive"}
